For this assay, the target named is 3×HA-tagged Tom1 (^3×HATom1) (S. cerevisiae) (UniProt Q03280). In words: affinity purification with mass spectrometry; cells expressing untagged Tom1 or ^3×HATom1 treated with bortezomib for 1 hr; total cell extracts adsorbed to HA resin, bound fractions analysed by mass spectrometry.

Amino acid sequences for entries named in this document (tags omitted).
UniProt Q03280: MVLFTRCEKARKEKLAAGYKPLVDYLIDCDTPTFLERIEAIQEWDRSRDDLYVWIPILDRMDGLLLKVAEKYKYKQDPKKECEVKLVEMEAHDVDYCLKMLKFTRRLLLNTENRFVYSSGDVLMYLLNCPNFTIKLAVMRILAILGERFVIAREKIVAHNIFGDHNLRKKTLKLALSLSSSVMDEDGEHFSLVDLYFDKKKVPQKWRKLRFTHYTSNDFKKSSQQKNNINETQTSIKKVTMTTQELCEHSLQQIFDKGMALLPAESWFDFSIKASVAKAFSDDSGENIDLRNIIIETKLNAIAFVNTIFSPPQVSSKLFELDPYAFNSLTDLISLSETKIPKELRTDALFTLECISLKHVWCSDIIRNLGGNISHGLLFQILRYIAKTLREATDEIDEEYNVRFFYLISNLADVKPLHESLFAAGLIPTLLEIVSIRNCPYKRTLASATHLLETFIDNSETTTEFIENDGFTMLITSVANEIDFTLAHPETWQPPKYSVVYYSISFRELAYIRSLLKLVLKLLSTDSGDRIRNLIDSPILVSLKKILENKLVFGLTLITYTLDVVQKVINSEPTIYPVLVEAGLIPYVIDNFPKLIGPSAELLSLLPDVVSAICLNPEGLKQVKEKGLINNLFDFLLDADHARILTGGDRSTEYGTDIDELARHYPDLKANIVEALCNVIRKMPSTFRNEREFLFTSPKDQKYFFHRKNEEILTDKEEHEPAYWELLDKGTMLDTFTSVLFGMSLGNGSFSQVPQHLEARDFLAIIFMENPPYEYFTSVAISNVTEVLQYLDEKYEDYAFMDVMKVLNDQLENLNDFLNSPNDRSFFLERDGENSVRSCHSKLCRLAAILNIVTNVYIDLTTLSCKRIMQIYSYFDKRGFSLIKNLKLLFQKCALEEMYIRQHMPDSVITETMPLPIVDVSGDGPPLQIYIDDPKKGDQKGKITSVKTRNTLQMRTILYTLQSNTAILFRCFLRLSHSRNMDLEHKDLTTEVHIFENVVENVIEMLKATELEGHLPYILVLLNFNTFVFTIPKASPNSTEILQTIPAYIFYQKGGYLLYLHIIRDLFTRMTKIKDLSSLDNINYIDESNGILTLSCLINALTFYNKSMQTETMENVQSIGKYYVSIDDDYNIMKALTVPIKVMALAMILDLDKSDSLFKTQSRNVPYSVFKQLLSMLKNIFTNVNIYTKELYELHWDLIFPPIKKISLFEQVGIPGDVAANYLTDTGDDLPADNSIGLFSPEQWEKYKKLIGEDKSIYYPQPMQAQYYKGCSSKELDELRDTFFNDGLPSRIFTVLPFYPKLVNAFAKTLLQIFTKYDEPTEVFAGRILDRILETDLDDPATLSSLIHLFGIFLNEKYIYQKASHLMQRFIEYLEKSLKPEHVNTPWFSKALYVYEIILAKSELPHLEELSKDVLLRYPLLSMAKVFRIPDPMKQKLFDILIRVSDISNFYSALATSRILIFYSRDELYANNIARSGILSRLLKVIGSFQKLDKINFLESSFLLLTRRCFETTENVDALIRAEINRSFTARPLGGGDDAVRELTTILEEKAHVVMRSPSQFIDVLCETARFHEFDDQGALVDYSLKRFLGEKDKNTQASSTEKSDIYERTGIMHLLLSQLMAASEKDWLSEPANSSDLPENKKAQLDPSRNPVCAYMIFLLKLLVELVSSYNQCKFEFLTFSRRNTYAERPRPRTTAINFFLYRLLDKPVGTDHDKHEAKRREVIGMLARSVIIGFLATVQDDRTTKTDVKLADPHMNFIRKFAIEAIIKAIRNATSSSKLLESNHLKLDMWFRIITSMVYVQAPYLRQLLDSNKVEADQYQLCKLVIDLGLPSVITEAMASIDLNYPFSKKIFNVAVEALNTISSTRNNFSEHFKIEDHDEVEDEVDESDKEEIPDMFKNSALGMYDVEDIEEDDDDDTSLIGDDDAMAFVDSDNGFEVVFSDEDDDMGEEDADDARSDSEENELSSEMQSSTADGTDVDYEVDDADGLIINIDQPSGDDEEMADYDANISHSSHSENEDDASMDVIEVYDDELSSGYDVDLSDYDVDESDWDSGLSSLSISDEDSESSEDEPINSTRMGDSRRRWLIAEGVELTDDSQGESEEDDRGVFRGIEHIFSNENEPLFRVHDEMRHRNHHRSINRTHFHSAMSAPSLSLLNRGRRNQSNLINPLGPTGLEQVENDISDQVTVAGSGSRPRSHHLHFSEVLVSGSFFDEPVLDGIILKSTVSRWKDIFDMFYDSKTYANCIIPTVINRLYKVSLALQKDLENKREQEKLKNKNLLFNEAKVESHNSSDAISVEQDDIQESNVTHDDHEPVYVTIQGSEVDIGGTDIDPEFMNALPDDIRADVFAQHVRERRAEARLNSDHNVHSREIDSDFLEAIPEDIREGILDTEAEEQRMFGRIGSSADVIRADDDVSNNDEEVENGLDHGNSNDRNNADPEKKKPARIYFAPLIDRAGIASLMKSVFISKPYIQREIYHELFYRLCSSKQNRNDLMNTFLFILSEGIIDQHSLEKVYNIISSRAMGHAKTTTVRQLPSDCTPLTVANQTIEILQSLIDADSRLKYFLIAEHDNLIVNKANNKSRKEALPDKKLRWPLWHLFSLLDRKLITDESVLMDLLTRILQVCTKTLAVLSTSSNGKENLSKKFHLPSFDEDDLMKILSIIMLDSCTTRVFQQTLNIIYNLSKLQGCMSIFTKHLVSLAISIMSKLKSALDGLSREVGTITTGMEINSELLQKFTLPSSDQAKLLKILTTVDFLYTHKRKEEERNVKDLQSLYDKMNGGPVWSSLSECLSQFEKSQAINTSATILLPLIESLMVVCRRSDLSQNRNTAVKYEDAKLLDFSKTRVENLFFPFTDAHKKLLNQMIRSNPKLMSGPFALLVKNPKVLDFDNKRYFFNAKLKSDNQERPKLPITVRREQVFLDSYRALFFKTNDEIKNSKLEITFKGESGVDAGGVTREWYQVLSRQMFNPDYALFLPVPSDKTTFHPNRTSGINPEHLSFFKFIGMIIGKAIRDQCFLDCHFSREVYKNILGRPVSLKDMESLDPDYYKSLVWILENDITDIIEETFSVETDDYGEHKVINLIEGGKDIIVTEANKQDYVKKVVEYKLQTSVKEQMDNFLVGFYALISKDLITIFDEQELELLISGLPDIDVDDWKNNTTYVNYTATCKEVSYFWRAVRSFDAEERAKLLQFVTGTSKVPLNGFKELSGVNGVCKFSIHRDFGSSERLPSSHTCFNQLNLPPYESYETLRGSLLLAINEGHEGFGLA
UniProt P53221: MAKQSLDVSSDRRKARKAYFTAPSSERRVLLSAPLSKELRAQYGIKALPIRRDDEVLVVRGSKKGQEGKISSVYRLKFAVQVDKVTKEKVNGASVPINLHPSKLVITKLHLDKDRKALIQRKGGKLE

Results on one substance are retold here after article PMC5026473.

Results are given in words; binding and its absence hold for the method and conditions named. Binding seen in cells or lysates may run through a third protein. These calls come from enrichment with a bait or labelling near it, and not all partners need be listed.

As to Rpl26b (from UniProt P53221 1-127), the binding result is “binds”.
